Test results: paper PMC4494967

Molecular target: T1, S-tag-GFP-CCDC6 (UniProt Q16204)
T1 sequence: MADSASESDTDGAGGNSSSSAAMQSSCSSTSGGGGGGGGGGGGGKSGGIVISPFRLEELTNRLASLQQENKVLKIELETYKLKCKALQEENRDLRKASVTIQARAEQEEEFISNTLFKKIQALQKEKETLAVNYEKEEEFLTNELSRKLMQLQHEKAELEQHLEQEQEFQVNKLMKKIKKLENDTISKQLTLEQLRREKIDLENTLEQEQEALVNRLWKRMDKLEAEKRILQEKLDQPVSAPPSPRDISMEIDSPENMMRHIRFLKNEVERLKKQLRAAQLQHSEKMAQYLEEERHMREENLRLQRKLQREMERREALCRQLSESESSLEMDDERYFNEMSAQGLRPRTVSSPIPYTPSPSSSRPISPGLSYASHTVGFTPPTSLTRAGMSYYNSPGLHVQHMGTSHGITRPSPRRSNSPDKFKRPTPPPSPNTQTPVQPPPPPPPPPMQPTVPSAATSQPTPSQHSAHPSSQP
Test: pull-down; S-protein (S-tag) pull-down of S-tag-GFP-CCDC6 from asynchronous or mitotic (nocodazole) HeLa Kyoto extracts; immunoblot with anti-cyclin B, anti-GSK3, anti-CCDC6

binding: binds
Substance: glycogen synthase kinase 3 (GSK3) (human (endogenous in HeLa)) (enzyme)

No constants are given. Whether binding was seen depends on the method and setting. Binding seen in cells or lysates may run through a third protein. Binding can be weak; no strength is given. Where a sequence is shown, tags or fusion partners need not be part of it.
